PubChem BioAssay AID1259254 – NCATS | 2017
In all, the deposit lists about 59,000 reagents; below is an unselected part. About 1,550 of them (2.6%) count as active. 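G2 share is only a proxy for re-replication; each gene was hit by three separate siRNAs, and active genes were retested.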 A number with no mark means an inactive call. The numbers tell different reagents against one gene apart. Further read-outs or replicates are left out here. Not stated in the record: the amount of reagent.

- Screen: 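Genome-wide screen for genes that prevent DNA re-replication in cancer cells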 (primary screen)
- Cells: human HCT116 colorectal cancer cells
- Reagent: single siRNA against human genes
- Time to read-out: 3 days
- Measurement: 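Nuclei stained with Hoechst and imaged; cell-cycle phase assigned by DNA content; G2 share scaled per plate, non-targeting siRNA 0%, GMNN siRNA 100%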
- Reading the numbers: G2 robust z-score and G2 cells, % of GMNN control: higher = more G2 cells, more excess DNA replication
- Hit rule: 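An siRNA counts as active if its G2 robust z-score lies at least 5 MADs above the screen median; here such calls match roughly 38% of GMNN control or more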

After knock-down of SIRPB1 (signal regulatory protein beta 1) #1 the results were G2 robust z-score -0.665; G2 cells, % of GMNN control -1.71.
After knock-down of SIRPB1 (signal regulatory protein beta 1) #2, the screen gave G2 robust z-score -0.43; G2 cells, % of GMNN control -0.0559.
SIRPB1 (signal regulatory protein beta 1) #3 showed G2 robust z-score 3.08; G2 cells, % of GMNN control 24.6.
PLXNA1 (plexin A1) #1 showed G2 robust z-score 0.151; G2 cells, % of GMNN control 4.03.
PLXNA1 (plexin A1) #2 scored G2 robust z-score -1.16; G2 cells, % of GMNN control -5.19.
Knock-down of PLXNA1 (plexin A1) #3 resulted in: G2 robust z-score -0.861; G2 cells, % of GMNN control -3.09.
Knock-down of SPNS1 (SPNS lysolipid transporter 1, lysophospholipid) #1 resulted in: G2 robust z-score 0.896; G2 cells, % of GMNN control 9.27.
With knock-down of SPNS1 (SPNS lysolipid transporter 1, lysophospholipid) #2, the record shows G2 robust z-score 1.31; G2 cells, % of GMNN control 12.2.
SPNS1 (SPNS lysolipid transporter 1, lysophospholipid) #3 gave G2 robust z-score -0.503; G2 cells, % of GMNN control -0.574.
After knock-down of ADAMTS17 (ADAM metallopeptidase with thrombospondin type 1 motif 17) #1, the record shows G2 robust z-score 1.81; G2 cells, % of GMNN control 15.7.
Against ADAMTS17 (ADAM metallopeptidase with thrombospondin type 1 motif 17) #2, the values are G2 robust z-score 1.31; G2 cells, % of GMNN control 12.2.
With knock-down of ADAMTS17 (ADAM metallopeptidase with thrombospondin type 1 motif 17) #3, the record shows G2 robust z-score -1; G2 cells, % of GMNN control -4.07.

Reformatted: results already given
target gene	siRNA no.	G2 robust z-score	G2 cells, % of GMNN control
SPNS1 (SPNS lysolipid transporter 1, lysophospholipid)	3	-0.503	-0.574
ADAMTS17 (ADAM metallopeptidase with thrombospondin type 1 motif 17)	1	1.81	15.7
